From the supplement of paper PMC10338343
± gives the standard deviation. Only a part is listed here, and it is no random draw. Many of these values have a large error.

System: MILI (PIWIL2) piRISC loaded with L1MC piRNA (26 nt)
Test: pre-steady-state target cleavage rate (min^-1); MIWI and MILI are mouse PIWI proteins and EfPiwi is from a freshwater sponge; tags in brackets are library labels; higher = faster piRNA-guided slicing of the target
Settings: guide: L1MC piRNA 5'p-UAACUAAAUACUAUGCAAGCUGUAGG; auxiliary factor: none (no GTSF1)
Summary of the method: (§1)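 The method was Cleave-'n-Seq, in which uncleaved targets from a transcribed, DNA-blocked target RNA library were sequenced after exposure to active affinity-purified piRISC carrying one synthetic guide, with or without GTSF1 partner protein. Reactions contained 0.1 nM library, 1 nM piRISC and, where present, 500 nM GTSF1 in HEPES–potassium acetate buffer at 33 °C for 0–8 or 0–960 min. Reads were normalised to depth and to weakly complementary targets, three trials were pooled, and k3 was capped at 0.0001 min^-1. The pre-steady-state cleavage rate came from a burst-and-steady-state fit.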

Sequence | pre-steady-state target cleavage rate
UCCUGGUACAGCUACGAUAGUAUUUUCAAA | 0.00116 ± 0.0074
UCCUGGAACAGCUUGCAUACAUUUUAGUUA | 0.00149 ± 0.0052
UCCUGGAUGAGCUUGCAUAGUAUUUAUUA | 0.00103 ± 0.0062
UCCUGGUACAGCUUGCUAUGUAUUUUCAAA | 0.000959 ± 0.0063
UCCUGGAACAGGUUGCAUAGUAUUUAGAAA | 0.00159 ± 0.0031
UCCUGGAUGUCGAUGCAUAGUUAUUUAGUUA | 0.00216 ± 0.0029
UCCUGGAUGAGCAACCAUAGUAUUUAGAAA | 0.000693 ± 0.009
UCCUGGUACAGCUUGCAUAGUUAAAUCAAA [g10:g24:cont:t1A] | 0.00102 ± 0.0065
UCCUGGAUGUGCUUGCAUACUAUUUAGAAA | 0.000715 ± 0.0076
UCCUGGUACAGCUUGCAUAGUAUAUUCAAA | 0.00249 ± 0.0034
UCCUGCUACAGCUUGCAUACAAUUUAGUAA | 0.000933 ± 0.0061
UCCUGGAACAGCUAGCAUAGUAUUUACAAA | 0.00153 ± 0.0049
UCCUCCUACAGCUUGGUAAGUAUUUUCAAA | 0.000675 ± 0.0073
UCCUGGAUCAGCUUGCAUAGUUAAUACAAA | 0.00114 ± 0.004
UCCUGGAUCAGCAUCCAUAGUAUUUAGUUA | 0.00148 ± 0.0051
UCCUCCUACAGCUUGCAUAGUAUUAGUUA | 0.00294 ± 0.0033
UCCUCCUACAGCUUGCAUAGUAUUAAGAAA | 0.00143 ± 0.0042
UCCUGGAUGUGCUUGCAUAGUAUUUUCAAA | 0.000626 ± 0.0079
UCCUGGAUCAGCUACCAUAGUAUUUAGUAA | 0.0025 ± 0.0026
UCCUGCUACAGCUUGCAUUGUAUUUACAAA | 0.000893 ± 0.006

Sequence | pre-steady-state target cleavage rate
UCCUCCUACAGCUUGCAUAGUAUAUAGAAA | 0.000857 ± 0.0077
UCCUGGAUGAGCUUGGUAAGUAUUUAGUAA | 0.00093 ± 0.0067
UCCUGGUACAGCUUGCUAUGUAUUUAGAAA | 0.000771 ± 0.0071
UCCUGGUACAGCUUGCAUACAAUUUACAAA | 0.000991 ± 0.0061
UCCUGGAUGAGGAUGCAUAGUAUUUACAAA | 0.00109 ± 0.0048
UCCUGGAACAGCUUGGAUAGUAUUUACAAA | 0.000685 ± 0.006
UCCUGGAUGUCCUUGCAUAGAUAUUAGUAA | 0.000288 ± 0.018
UCCUGGUACAGCUUGCAUAGUAUUUAGCUA | 0.00104 ± 0.0094
UCCUCCUACAGCUAGCAUAGUAUUUAGAAA | 0.00131 ± 0.0036
UCCUGCUACAGCUUGCAUACUAUUUAGAAA | 0.001 ± 0.0071
UCCUGGAUGUGCUUGCAUAGUAUAUAGAAA | 0.000558 ± 0.012
UCCUGGUACACGUUGCAUAGUAUUUAGAAA | 0.00187 ± 0.0047
UCCUGGAUGAGCUUGCAUAGUAUAAAGAAA | 0.000472 ± 0.016
UCCUGGAACAGCUUGGUAAGUAUUUACAAA | 0.000833 ± 0.0066
UCCUGGAUGAGCUACCAUAGUAUUUAGAAA | 0.000444 ± 0.012
UCCUGGAUGAGCUAGCAUAGUAUUUACAAA | 0.00121 ± 0.0046
UCCUGGAUGUCCUUGCAUAGUAUUUAGUCUA | 0.00191 ± 0.0048
UCCUGGAACAGCUUGCAUACAUUUUAGUAA | 0.000951 ± 0.007
UCCUGGAUGUCGUUGCAAACUAUUUAGUUA | 0.000425 ± 0.0096

System: MIWI (PIWIL1) piRISC loaded with L1MC piRNA (30 nt)
Test: as above
Settings: guide: L1MC piRNA 5'p-UAACUAAAUACUAUGCAAGCUGUAGGUCCU; auxiliary factor: none (no GTSF1)
Summary of the method: as §1

Sequence | pre-steady-state target cleavage rate
UCCUGGUACAGCUACGAUAGUAUUUUCAAA | 0.000533 ± 0.0099
UCCUGGAACAGCUUGCAUACAUUUUAGUUA | 0.000261 ± 0.016
UCCUGGAUGAGCUUGCAUAGUAUUUAUUA | 0.00227 ± 0.0035
UCCUGGUACAGCUUGCUAUGUAUUUUCAAA | 0.000865 ± 0.0071
UCCUGGAACAGGUUGCAUAGUAUUUAGAAA | 0.00224 ± 0.0029
UCCUGGAUGUCGAUGCAUAGUUAUUUAGUUA | 0.000793 ± 0.0084
UCCUGGAUGAGCAACCAUAGUAUUUAGAAA | 0.000492 ± 0.0061
UCCUGGUACAGCUUGCAUAGUUAAAUCAAA [g10:g24:cont:t1A] | 0.00131 ± 0.007
UCCUGGAUGUGCUUGCAUACUAUUUAGAAA | 0.00199 ± 0.004
UCCUGGUACAGCUUGCAUAGUAUAUUCAAA | 0.00133 ± 0.0077
UCCUGCUACAGCUUGCAUACAAUUUAGUAA | 0.00133 ± 0.0067
UCCUGGAACAGCUAGCAUAGUAUUUACAAA | 0.00248 ± 0.0038
UCCUCCUACAGCUUGGUAAGUAUUUUCAAA | 0.000278 ± 0.01
UCCUGGAUCAGCUUGCAUAGUUAAUACAAA | 0.00113 ± 0.0046
UCCUGGAUCAGCAUCCAUAGUAUUUAGUUA | 0.000744 ± 0.0077
UCCUCCUACAGCUUGCAUAGUAUUAGUUA | 0.00133 ± 0.0043
UCCUCCUACAGCUUGCAUAGUAUUAAGAAA | 0.00175 ± 0.0035
UCCUGGAUGUGCUUGCAUAGUAUUUUCAAA | 0.00192 ± 0.0038
UCCUGGAUCAGCUACCAUAGUAUUUAGUAA | 0.00114 ± 0.0057
UCCUGCUACAGCUUGCAUUGUAUUUACAAA | 0.00137 ± 0.0043

Sequence | pre-steady-state target cleavage rate
UCCUCCUACAGCUUGCAUAGUAUAUAGAAA | 0.00121 ± 0.0054
UCCUGGAUGAGCUUGGUAAGUAUUUAGUAA | 0.000346 ± 0.01
UCCUGGUACAGCUUGCUAUGUAUUUAGAAA | 0.00104 ± 0.006
UCCUGGUACAGCUUGCAUACAAUUUACAAA | 0.00108 ± 0.0074
UCCUGGAUGAGGAUGCAUAGUAUUUACAAA | 0.00128 ± 0.0048
UCCUGGAACAGCUUGGAUAGUAUUUACAAA | 0.00151 ± 0.0045
UCCUGGAUGUCCUUGCAUAGAUAUUAGUAA | 0.000641 ± 0.009
UCCUGGUACAGCUUGCAUAGUAUUUAGCUA | 0.00259 ± 0.0038
UCCUCCUACAGCUAGCAUAGUAUUUAGAAA | 0.00138 ± 0.0043
UCCUGCUACAGCUUGCAUACUAUUUAGAAA | 0.00292 ± 0.0032
UCCUGGAUGUGCUUGCAUAGUAUAUAGAAA | 0.00127 ± 0.0081
UCCUGGUACACGUUGCAUAGUAUUUAGAAA | 0.00164 ± 0.0057
UCCUGGAUGAGCUUGCAUAGUAUAAAGAAA | 0.00133 ± 0.0053
UCCUGGAACAGCUUGGUAAGUAUUUACAAA | 0.00104 ± 0.006
UCCUGGAUGAGCUACCAUAGUAUUUAGAAA | 0.000375 ± 0.0081
UCCUGGAUGAGCUAGCAUAGUAUUUACAAA | 0.00125 ± 0.0073
UCCUGGAUGUCCUUGCAUAGUAUUUAGUCUA | 0.00288 ± 0.003
UCCUGGAACAGCUUGCAUACAUUUUAGUAA | 0.00108 ± 0.0074
UCCUGGAUGUCGUUGCAAACUAUUUAGUUA | 0.000582 ± 0.0095
